Source: PubChem BioAssay AID1224830 (NIAID, 2016)

- Purpose: 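Host factors that control LPS-induced TNF expression in human macrophages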 (primary screen)
- System: human THP-1 monocytic leukaemia cells, TNF dual-luciferase reporter clone, PMA-differentiated to macrophage-like cells
- Knock-down reagent: siRNA pool against human genes, 50 nM
- Timing: LPS for 4 h, given about 3 days after siRNA transfection
- Challenge: bacterial LPS (TLR4 ligand), 10 ng/ml
- Read-out: 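TNF firefly reporter luminescence divided by renilla, normalised to the plate median, then turned into a robust z-score for each replicate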
- Reading the numbers: TNF reporter robust z-score: higher = stronger TNF reporter response to LPS
- Rule for the call: 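Each well counts as active if its z-score is over 2.8 or under -1.5; controls are left without a call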
The whole screen tested about 18,000 reagents; below is a part drawn at random. About 2,900 of all reagents (16%) count as active. 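Calls are made per well; low scores hint the gene aids the LPS response, high scores that it dampens it.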 A number with no mark means an inactive call. Repeated entries: four replicate wells of each siRNA pool.

target gene	TNF reporter robust z-score
PITPNM3 (PITPNM family member 3)	-0.33
PITPNM3 (PITPNM family member 3)	0.25
PITPNM3 (PITPNM family member 3)	-1.06
PITPNM3 (PITPNM family member 3)	0.47
HAPLN1 (hyaluronan and proteoglycan link protein 1)	-0.26
HAPLN1 (hyaluronan and proteoglycan link protein 1)	0.48
HAPLN1 (hyaluronan and proteoglycan link protein 1)	0.45
HAPLN1 (hyaluronan and proteoglycan link protein 1)	1.54
CLRN3 (clarin 3)	0.71
CLRN3 (clarin 3)	0.47
CLRN3 (clarin 3)	0.19
CLRN3 (clarin 3)	-0.42
OR6B3 (olfactory receptor family 6 subfamily B member 3)	-0.38
OR6B3 (olfactory receptor family 6 subfamily B member 3)	0
OR6B3 (olfactory receptor family 6 subfamily B member 3)	0.11
OR6B3 (olfactory receptor family 6 subfamily B member 3)	0.56
DLG3 (discs large MAGUK scaffold protein 3)	-0.3
DLG3 (discs large MAGUK scaffold protein 3)	-0.62
DLG3 (discs large MAGUK scaffold protein 3)	-0.52
DLG3 (discs large MAGUK scaffold protein 3)	-0.36
CYP4F3 (cytochrome P450 family 4 subfamily F member 3)	0.06
CYP4F3 (cytochrome P450 family 4 subfamily F member 3)	-0.34
CYP4F3 (cytochrome P450 family 4 subfamily F member 3)	-0.81
CYP4F3 (cytochrome P450 family 4 subfamily F member 3)	-0.13
PAX5 (paired box 5)	0.65
PAX5 (paired box 5)	0.5
PAX5 (paired box 5)	1.04
PAX5 (paired box 5)	0.01
TAS2R50 (taste 2 receptor member 50)	-1.07
TAS2R50 (taste 2 receptor member 50)	-1.34
TAS2R50 (taste 2 receptor member 50)	-0.97
TAS2R50 (taste 2 receptor member 50)	-0.31
DAZL (deleted in azoospermia like)	-0.69
DAZL (deleted in azoospermia like)	0.86
DAZL (deleted in azoospermia like)	-0.26
TAF9B (TATA-box binding protein associated factor 9b)	-0.05
TAF9B (TATA-box binding protein associated factor 9b)	-0.24
TAF9B (TATA-box binding protein associated factor 9b)	0.19
TAF9B (TATA-box binding protein associated factor 9b)	0.38
ABCC9 (ATP binding cassette subfamily C member 9)	-0.3
ABCC9 (ATP binding cassette subfamily C member 9)	0.28
ABCC9 (ATP binding cassette subfamily C member 9)	-1.14
ABCC9 (ATP binding cassette subfamily C member 9)	-0.12
DNAH2 (dynein axonemal heavy chain 2)	-1.93 (active)
DNAH2 (dynein axonemal heavy chain 2)	-1.21
DNAH2 (dynein axonemal heavy chain 2)	-0.92
DNAH2 (dynein axonemal heavy chain 2)	-0.61
ROBO1 (roundabout guidance receptor 1)	1.02
ROBO1 (roundabout guidance receptor 1)	0.37
ROBO1 (roundabout guidance receptor 1)	1.3
ROBO1 (roundabout guidance receptor 1)	2.89 (active)
ASXL1 (ASXL transcriptional regulator 1)	0.57
ASXL1 (ASXL transcriptional regulator 1)	-0.36
ASXL1 (ASXL transcriptional regulator 1)	0.93
ASXL1 (ASXL transcriptional regulator 1)	1.36
TXN2 (thioredoxin 2)	0.39
TXN2 (thioredoxin 2)	0.78
TXN2 (thioredoxin 2)	0.5
TXN2 (thioredoxin 2)	0.28
GPS1 (G protein pathway suppressor 1)	-0.12
GPS1 (G protein pathway suppressor 1)	-0.06
GPS1 (G protein pathway suppressor 1)	-0.63
GPS1 (G protein pathway suppressor 1)	-0.64
COPE (coat protein complex I subunit epsilon)	1.47
COPE (coat protein complex I subunit epsilon)	0.67
COPE (coat protein complex I subunit epsilon)	-0.01
COPE (coat protein complex I subunit epsilon)	0.79
CKMT1A (creatine kinase, mitochondrial 1A)	-0.01
CKMT1A (creatine kinase, mitochondrial 1A)	0.34
CKMT1A (creatine kinase, mitochondrial 1A)	0.35
CKMT1A (creatine kinase, mitochondrial 1A)	0.48
FAM9A (family with sequence similarity 9 member A)	2.03
FAM9A (family with sequence similarity 9 member A)	2.13
FAM9A (family with sequence similarity 9 member A)	-0.05
FAM9A (family with sequence similarity 9 member A)	-0.4
CNNM4	3.06 (active)
CNNM4	1.12
CNNM4	0.73
CNNM4	0.27
FPR2 (formyl peptide receptor 2)	-0.27
FPR2 (formyl peptide receptor 2)	0.22
FPR2 (formyl peptide receptor 2)	-0.13
FPR2 (formyl peptide receptor 2)	-0.11
ARK2C	0.07
ARK2C	-1.53 (active)
ARK2C	1.25
ARK2C	1.65
MPZL1 (myelin protein zero like 1)	3.58 (active)
MPZL1 (myelin protein zero like 1)	4.39 (active)
MPZL1 (myelin protein zero like 1)	2.6
MPZL1 (myelin protein zero like 1)	3.18 (active)
CYP2A13 (cytochrome P450 family 2 subfamily A member 13)	-1.11
CYP2A13 (cytochrome P450 family 2 subfamily A member 13)	-0.61
CYP2A13 (cytochrome P450 family 2 subfamily A member 13)	-0.64
CYP2A13 (cytochrome P450 family 2 subfamily A member 13)	-0.81
ICA1L (islet cell autoantigen 1 like)	-0.56
ICA1L (islet cell autoantigen 1 like)	0.13
ICA1L (islet cell autoantigen 1 like)	-0.99
ICA1L (islet cell autoantigen 1 like)	-0.64
LMTK2 (lemur tail kinase 2)	-0.26
LMTK2 (lemur tail kinase 2)	-0.75
LMTK2 (lemur tail kinase 2)	-1.48
LMTK2 (lemur tail kinase 2)	-0.24
MLLT6 (MLLT6, PHD finger containing)	-0.5
MLLT6 (MLLT6, PHD finger containing)	-0.11
MLLT6 (MLLT6, PHD finger containing)	-1.29
MLLT6 (MLLT6, PHD finger containing)	-1.24
LANCL3 (LanC like family member 3)	0.22
LANCL3 (LanC like family member 3)	-0.02
LANCL3 (LanC like family member 3)	-0.3
LANCL3 (LanC like family member 3)	0.89

Entries listed above marked active:
target gene	TNF reporter robust z-score
DNAH2 (dynein axonemal heavy chain 2)	-1.93 (active)
ROBO1 (roundabout guidance receptor 1)	2.89 (active)
CNNM4	3.06 (active)
ARK2C	-1.53 (active)
MPZL1 (myelin protein zero like 1)	3.58 (active)
MPZL1 (myelin protein zero like 1)	4.39 (active)
MPZL1 (myelin protein zero like 1)	3.18 (active)
